# Data reported in PubChem BioAssay AID651898 (Broad Institute, 2012).
# The list shows a part of the results. Further columns of the screen follow, without active or inactive calls.
# Assay: HepG2 hepatoma cell viability loss – plate reader, cherry-pick, two tests, cytotoxicity control, dose response (AID 651898)
# Details: measured here: replicate test 2 max activity; at 6 µM unless noted
row,SMILES,max activity
1,COc1cccc(-c2ccc3c(c2)[C@H]2[C@H](CCN2C(=O)C2CCC2)[C@@H](CO)N3)c1,-8.62% [at 26 µM]
2,CN1c2ccc(-c3ccccc3)cc2[C@H]2[C@H](CCN2C(=O)c2ccccc2F)[C@H]1CO,-14.5% [at 3 µM]
3,O=C(c1ccc2c(c1)OCO2)N1CC[C@@H]2[C@H](CO)Nc3ccc(-c4ccc(F)cc4)cc3[C@@H]21,-13.9%
4,CNC(=O)C[C@H]1CC[C@@H]2[C@H](COC[C@@H](O)CN2C(=O)Nc2ccc(Cl)c(Cl)c2)O1,-20.5% [at 0.8 µM]
5,Cc1ccccc1S(=O)(=O)NCC[C@H]1CC[C@@H](NC(=O)Nc2cccc(F)c2)[C@H](CO)O1,-9.11% [at 3 µM]
6,C[C@@H]1CN([C@H](C)CO)C(=O)Cc2cc(NC(=O)Cn3cnnn3)ccc2O[C@H]1CN(C)Cc1ccc2c(c1)OCO2,-9.47% [at 0.75 µM]
7,COC(=O)C[C@@H]1C[C@@H]2c3cc(NC(=O)c4cccnc4)ccc3O[C@@H]2[C@@H](CO)O1,-5.15%
8,CC(=O)N1CC[C@@H]2[C@@H](CO)N(C)c3ccc(-c4ccccc4)cc3[C@@H]21,20.8% [at 26 µM]
9,CNC(=O)C[C@H]1CC[C@@H]2[C@H](COC[C@@H](O)CN2C(=O)Nc2ccc3c(c2)OCO3)O1,-9.95% [at 1.6 µM]
10,O=C(Nc1nccs1)[C@H]1[C@H](CO)[C@H]2Cn3c(ccc(-c4cccnc4)c3=O)[C@H]2N1CC1CCCC1,9.03% [at 26 µM]
11,CC(=O)N1[C@@H]2c3ccc(-c4cccnc4)c(=O)n3C[C@@H]2[C@@H](CO)[C@@H]1C(=O)NCc1ccccc1Cl,6.21% [at 1.6 µM]
12,CC(C)(C)[S@](=O)N1Cc2cc(C(=O)NCc3ccccc3F)nc(-c3cccc(-c4cccnc4)c3)c2[C@@H]1CCO,-7.97% [at 0.35 µM]
13,O=C(c1ccccc1F)N1CC[C@@H]2[C@H](CO)Nc3ccc(Br)cc3[C@@H]21,-7.95% [at 0.38 µM]
14,O=C(c1cccc(F)c1)N1CC[C@@H]2[C@@H](CO)Nc3ccc(-c4cccc(F)c4)cc3[C@@H]21,-9.33%
15,O=C(C1CC1)N1CC[C@@H]2[C@H](CO)Nc3ccc(Br)cc3[C@@H]21,4.87%
16,CCNC(=O)C[C@H]1CC[C@@H]2[C@@H](COc3ccc(NC(=O)Nc4cccc(F)c4)cc3C(=O)N2C)O1,-10.2% [at 26 µM]
17,COC(=O)[C@@H]1[C@@H](CO)[C@@H]2Cn3c(ccc(-c4ccccc4)c3=O)[C@@H]2N1Cc1cccc(F)c1,-16.8% [at 13.5 µM]
18,COC(=O)C[C@H]1CC[C@@H]2[C@H](COC[C@@H](O)CN2C(=O)Nc2cccc(F)c2)O1,-10.3%
19,CCNC(=O)[C@H]1[C@H](CO)[C@H]2Cn3c(ccc(-c4cccc(F)c4)c3=O)[C@H]2N1C(=O)Cc1cccnc1,9.41% [at 0.8 µM]
20,O=C(N[C@@H]1CC[C@H](CCn2cc(-c3cccnc3)nn2)O[C@@H]1CO)c1ccccc1F,-8.82% [at 3 µM]

# Look-ups from the list.
# O=C(c1ccccc1F)N1CC[C@@H]2[C@H](CO)Nc3ccc(Br)cc3[C@@H]21 | max activity: -7.95% [at 0.38 µM]
# CC(=O)N1CC[C@@H]2[C@@H](CO)N(C)c3ccc(-c4ccccc4)cc3[C@@H]21 | max activity: 20.8% [at 26 µM]
# O=C(c1ccc2c(c1)OCO2)N1CC[C@@H]2[C@H](CO)Nc3ccc(-c4ccc(F)cc4)cc3[C@@H]21 | max activity: -13.9%

# (list continues)

row,SMILES,max activity
1,CCNC(=O)[C@H]1[C@H](CO)[C@H]2Cn3c(ccc(-c4ccccc4)c3=O)[C@H]2N1C(=O)Cc1cccnc1,10.4% [at 0.8 µM]
2,C/C=C/c1ccc2c(c1)O[C@@H](CN(C)C(=O)Cc1cccnc1)[C@H](C)CN([C@H](C)CO)S2(=O)=O,-11.7% [at 1.6 µM]
3,O=C(N[C@H]1CC[C@@H](CCn2cc(-c3cccnc3)nn2)O[C@@H]1CO)c1ccccc1F,-13.9% [at 0.38 µM]
4,O=C(c1ccncc1)N1CC[C@H]2[C@H](CO)Nc3ccc(Br)cc3[C@H]21,-17.3% [at 1.5 µM]
5,COCCNC(=O)C[C@H]1CC[C@@H]2[C@@H](COc3ccc(NC(=O)Nc4cccc(F)c4)cc3C(=O)N2C)O1,-11.3% [at 23.5 µM]
6,O=C(C[C@@H]1C[C@H]2c3cc(NC(=O)c4cccnc4)ccc3O[C@H]2[C@@H](CO)O1)NCc1cc(F)ccc1F,-8.47% [at 23.5 µM]
7,O=C(c1cccc(F)c1)N1CC[C@@H]2[C@H](CO)Nc3ccc(-c4cccc(F)c4)cc3[C@@H]21,-15.4% [at 0.8 µM]
8,O=C(Cc1ccccc1)N1CC[C@@H]2[C@H](CO)Nc3ccc(Br)cc3[C@@H]21,15.2% [at 26 µM]
9,COc1ccc(-c2ccc3c(c2)[C@H]2[C@H](CCN2C(=O)Cc2cccnc2)[C@H](CO)N3C)cc1,9.68% [at 12 µM]
10,CN1c2ccc(-c3cccc(F)c3)cc2[C@H]2[C@H](CCN2C(=O)c2ccncc2)[C@H]1CO,12.3% [at 0.195 µM]
11,C/C=C/c1ccc2c(c1)O[C@@H](CN(C)C(=O)Nc1ccc(F)cc1)[C@@H](C)CN([C@@H](C)CO)S2(=O)=O,-14.5%
12,COc1ccccc1NC(=O)N[C@@H]1CC[C@H](CCn2cc(-c3cccnc3)nn2)O[C@H]1CO,-10.8% [at 26 µM]
13,CC(=O)N1CC[C@@H]2[C@@H](CO)N(C)c3ccc(-c4cccc(F)c4)cc3[C@@H]21,-7.89% [at 13.5 µM]
14,C/C=C/c1ccc2c(c1)O[C@@H](CN(C)C(=O)Nc1ccc(OC)cc1)[C@@H](C)CN([C@@H](C)CO)S2(=O)=O,15.4%
15,CN1c2ccc(-c3cccc(F)c3)cc2[C@@H]2[C@@H](CCN2C(=O)c2ccncc2)[C@H]1CO,-8.13%
16,C/C=C/c1ccc2c(c1)O[C@@H](CN(C)C(=O)Nc1ccccc1)[C@H](C)CN([C@H](C)CO)S2(=O)=O,-9.7% [at 0.38 µM]
17,CN1c2ccc(-c3cccc(F)c3)cc2[C@H]2[C@H](CCN2C(=O)c2ccncc2)[C@@H]1CO,-3.95% [at 1.6 µM]
18,O=C(C[C@@H]1C[C@@H]2c3cc(NC(=O)c4cccnc4)ccc3O[C@@H]2[C@@H](CO)O1)NCc1cccc(F)c1,-14.9% [at 0.195 µM]
19,O=C(C[C@H]1C[C@H]2c3cc(NC(=O)c4cccnc4)ccc3O[C@H]2[C@H](CO)O1)NCc1ccccn1,-4.68% [at 1.6 µM]
20,N#Cc1ccc(-c2ccc3c(c2)[C@@H]2[C@@H](CCN2C(=O)c2ccc(F)cc2)[C@@H](CO)N3)cc1,-6.17% [at 26 µM]
